PubChem BioAssay AID1671195 | Yale University, 2021
Test: 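Genes whose knockdown alters LDL uptake in liver cancer cells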 (primary screen). System: human Huh7 hepatoma cells. Knock-down reagent: siRNA pool against human genes, 18 nM. Time to read-out: about 2 to 2.5 days of knockdown, then 8 h LDL uptake. Conditions: DiI-labelled LDL at 30 µg/ml for 8 h, in lipoprotein-deficient serum medium. Measurement: 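Fluorescent LDL signal imaged in cells, scaled to the plate median, robust z-score for each replicate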. Direction: robust z-score: higher = more LDL uptake after knockdown. Rule for the call: 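a gene counts as active if at least two replicate z-scores exceed ±2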.
Here is a random part of about 22,000 reagents tested. Over the whole deposit, about 1,510 (6.9%) are marked active. 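Active includes knockdowns raising or lowering LDL uptake; positive z-scores mean more uptake, negative mean less.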 The numbers tell different reagents against one gene apart.

The opening 4 records as a preview:
no.	target gene	pool no.	robust z-score, replicate 1	robust z-score, replicate 2	robust z-score, replicate 3	call
1	C6orf136 (chromosome 6 open reading frame 136)	1	-1.46	-1.51	-1.54	inactive
2	IQGAP1 (IQ motif containing GTPase activating protein 1)	1	-1.1	-0.954	-0.727	inactive
3	GPIHBP1	1	-0.943	-0.814	-0.818	inactive
4	SET (SET nuclear proto-oncogene)	1	0.233	0.0282	-0.609	inactive

The listing, from the start:
no.	target gene	pool no.	robust z-score, replicate 1	robust z-score, replicate 2	robust z-score, replicate 3	call
1	C6orf136 (chromosome 6 open reading frame 136)	1	-1.46	-1.51	-1.54	inactive
2	IQGAP1 (IQ motif containing GTPase activating protein 1)	1	-1.1	-0.954	-0.727	inactive
3	GPIHBP1	1	-0.943	-0.814	-0.818	inactive
4	SET (SET nuclear proto-oncogene)	1	0.233	0.0282	-0.609	inactive
5	GLUD1 (glutamate dehydrogenase 1)	1	-0.963	-1.01	-1.14	inactive
6	TMEM39B (transmembrane protein 39B)	1	-0.997	0.701	-0.531	inactive
7	VAMP7 (vesicle associated membrane protein 7)	1	0.149	0.123	0.608	inactive
8	LOC440949 (retired record)	1	-1.22	-1.03	-1.35	inactive
9	BOD1 (biorientation of chromosomes in cell division 1)	1	-0.839	-0.783	-0.354	inactive
10	SPINK2 (serine peptidase inhibitor Kazal type 2)	1	1.23	0.94	1.24	inactive
11	LINC02878 (long independently transcribed non-coding RNA 2878)	1	0.406	0.675	0.458	inactive
12	LOC441446 (retired record)	1	-0.22	-0.57	-0.649	inactive
13	DYRK1A	1	0.905	0.463	0.2	inactive
14	MUCL3 (mucin like 3)	1	2.39	2.71	1.62	active
15	ZNF117 (zinc finger protein 117)	1	-0.174	-0.309	-0.66	inactive
16	ZNF117 (zinc finger protein 117)	2	-1.16	-1.27	-1.52	inactive
17	MYO3A (myosin IIIA)	1	0.639	-0.116	-0.192	inactive
18	MAK (male germ cell associated kinase)	1	1.98	1.04	2.8	active
19	RBM33 (RNA binding motif protein 33)	1	7.24	4.12	5.1	active
20	RBM33 (RNA binding motif protein 33)	2	2.38	1.77	2.46	active
21	LOC388914 (retired record)	1	-0.0816	0.274	0.199	inactive
22	PRRT3 (proline rich transmembrane protein 3)	1	-1.27	-1.47	-1.53	inactive
23	E2F7 (E2F transcription factor 7)	1	0.395	1.5	1.57	inactive
24	LOC440444 (retired record)	1	-0.443	-0.149	-0.366	inactive
25	IFT22 (intraflagellar transport 22)	1	-2.24	-2.47	-2.55	active
26	OAS2 (2'-5'-oligoadenylate synthetase 2)	1	-0.118	-0.776	-0.533	inactive
27	DEFB127 (defensin beta 127)	1	-0.922	-0.467	-0.182	inactive
28	TGS1 (trimethylguanosine synthase 1)	1	-0.921	-1	-0.605	inactive
29	ATP2B2 (ATPase plasma membrane Ca2+ transporting 2)	1	0.29	-0.0603	0.37	inactive
30	YES1 (YES proto-oncogene 1, Src family tyrosine kinase)	1	2.16	2.61	2.74	active
31	DGAT2L6 (diacylglycerol O-acyltransferase 2 like 6)	1	-0.322	-0.526	-0.502	inactive
32	SAA2 (serum amyloid A2)	1	1.12	-0.0735	-0.125	inactive
33	FAM181A (family with sequence similarity 181 member A)	1	-0.333	0.118	-0.0685	inactive
34	TBC1D10A (TBC1 domain family member 10A)	1	0.294	-0.0601	-0.134	inactive
35	TRMT2A (tRNA methyltransferase 2A)	1	0.051	-0.229	0.808	inactive
36	PLEKHG3 (pleckstrin homology and RhoGEF domain containing G3)	1	-1.16	-1.11	0.23	inactive
37	UBXN2B (UBX domain protein 2B)	1	0.492	0.554	0.566	inactive
38	ADAMTS5 (ADAM metallopeptidase with thrombospondin type 1 motif 5)	1	-1.6	-1.31	-1.46	inactive
39	PARM1 (prostate androgen-regulated mucin-like protein 1)	1	1.44	2.52	0.423	inactive
40	SOX9 (SRY-box transcription factor 9)	1	-2.14	-1.53	-2.3	active
41	ADAMTSL1 (ADAMTS like 1)	1	-1.94	-2.08	-1.93	active
42	ADAMTSL1 (ADAMTS like 1)	2	-0.295	-0.274	-0.234	inactive
43	PTGDR2 (prostaglandin D2 receptor 2)	1	-2.32	-1.32	-0.244	inactive
44	CCT8L2 (chaperonin containing TCP1 subunit 8 like 2)	1	-0.334	-0.576	-1.08	inactive
45	ZNF704 (zinc finger protein 704)	1	-0.0174	-0.229	0.11	inactive
46	ANO10 (anoctamin 10)	1	-0.00177	1.76	0.115	inactive
